According to the supplement of paper PMC5949888:
Most values lie at the floor of the assay. Slopes are relative: functional sequences can read slightly below zero.

test system: Saccharomyces cerevisiae PS128 hsf1 delta, HSF1(1-493) fusion; assay: growth estimate (transactivation domain function in HSF1 fusion, heat-shock survival) (a.u. (slope of normalised read count over time)); higher = stronger growth at 37°C, i.e. more transactivation activity; conditions: library: random library
Procedure: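 Random 60-nt DNA library encoding peptides of up to 20 aa, fused to the C-terminus of yeast HSF1 residues 1-493 (C-terminal TAD deleted) and expressed from the native HSF1 promoter on a CEN plasmid in hsf1-deleted S. cerevisiae PS128. Cells were selected at 37°C on -trp 5-FOA plates for 0, 2, 4, 6 and 8 days and amplicons were sequenced. Growth estimate is the slope of a robust linear fit of total-sum-normalised read counts (normalised to the first time point) over time, using at least 2 replicates. Sequences are classed functional (TAD activity) above a threshold of -0.13, set from stop-codon control sequences.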

Substance | growth estimate
AISERETDSILYVSEVLMPA | < -0.25
AITLETAGRVVEVLS | < -0.25
AITQSDSRRPKPFRSRPVYR | < -0.25
AITRLPTASSGL | < -0.25
AIYRCLSNCVPVHIDLGRHD | < -0.25
AKAVRVDGCNALEFLVNPPL | < -0.25
AKDGYGDADELCGGGWVVIA | -0.222
AKDQPYQRLRESGHQGMNCA | < -0.25
AKDVRIGLRVHCIKGAIQGK | < -0.25
AKIP | < -0.25
AKKSGAGLCVRQEPHYVPFS | -0.212
AKLFTS | < -0.25
AKLGERPGPF | < -0.25
AKNAACGAHVNGMGIGDTLG | < -0.25
AKNSGEAQKYGGHSTKRRRG | < -0.25
AKPGAQALLWQLAKPISD | < -0.25
AKPWC | < -0.25
AKSDQIGREYIGLYTTGARA | < -0.25
AKTEEAFGQENGTARVQRSV | < -0.25
AKTGRILWSTSEPWWTQEYG | < -0.25
AKVKTPK | < -0.25
AKWGVCVCRFKQRKC | < -0.25
ALA | < -0.25
ALAGDARWNARLLTAGHKKA | < -0.25

Substance | growth estimate
ALANQLLH | < -0.25
ALDANRLIKPELECSSLG | < -0.25
ALDLKY | -0.243
ALEINVGSDK | -0.246
ALFCTGTSRSLAGT | < -0.25
ALGGRWV | -0.228
ALGH | < -0.25
ALGIRTAREA | < -0.25
ALGRYKNSCQRARQIH | -0.245
ALGTRANLRVASSS | < -0.25
ALGYNQSIDQGVLLRFSVRD | < -0.25
ALIECAGYSTS | < -0.25
ALIL | < -0.25
ALIRIKVMSYDR | < -0.25
ALISEQGTHPYASYRYN | < -0.25
ALIWLARNPIRGTRTIMRFG | < -0.25
ALKDGHLLRSTPMGVSALLC | < -0.25
ALKPADLRGRLIHRCVVPI | < -0.25
ALLF | < -0.25
ALLPGAIILVPDTVKLLCLC | < -0.25
ALLRIQAADSG | < -0.25
ALLS | < -0.25
ALLVGIISAGKSLLGL | < -0.25
ALNAAPADFRARNPVIEVYI | < -0.25

Substance | growth estimate
ALNDKLIGVVESGEIIHTRV | < -0.25
ALNHWYLWAGGVRAGFQRDR | < -0.25
ALPRRAVTLRYHVIVRRRNA | < -0.25
ALPSIGLLADRRTGYAGRLS | < -0.25
ALPWATRGQHTRVRPACSGL | < -0.25
ALQHLFIPVEHW | < -0.25
ALRQSKWADEWLFVRGTVMP | < -0.25
ALSASSRSERAHRVRLN | < -0.25
ALSELICPDKLTSRRVGL | < -0.25
ALSVR | < -0.25
ALTIGGTLQSAI | < -0.25
ALTQLRAQNNILGTGNPRDG | < -0.25
ALVEARAGIVKACAACYSGL | < -0.25
ALVEKKKGSLCHVCVPGV | < -0.25
ALWAAKPLFHAHIPS | < -0.25
ALWSSHHREKNVRALRGHSC | < -0.25
ALYCGHKGGLTATG | < -0.25
AMCRDEQGPGVVFVQRTYRF | < -0.253
AMEGCKARWCRRA | < -0.25
AMGGSGWARSLGLSSTVSWV | < -0.25
AMIEQEMAVCRVKGYTTEAN | < -0.25
AMLLHAQYSYSCWERRTRYG | < -0.25
AMNTR | < -0.25
AMPHGSSGDIGVYLHPKIHT | < -0.25

Substance | growth estimate
AMQL | < -0.25
AMRLTTHV | < -0.25
AMVSQLPRNIVGAVRTDIVD | < -0.25
AMWTMVRIIGPLWRD | < -0.25
ANDGRVVGTACLSDESVAPF | < -0.25
ANE | < -0.25
ANFDLVSWTRGSEVEYRCTC | < -0.25
ANIFGGPLTLISYKTNLRLN | -0.246
ANISFGRLRSRPWRAYSNPA | < -0.25
ANIVREGW | < -0.25
ANKRCKESHSWTQYRVGQRH | < -0.25
ANMEVFVAQGAIHEEVVPLG | < -0.25
ANRFES | < -0.25
ANRFQVWCLLAWQRLYDLRI | < -0.25
ANSMKYRFIS | < -0.25
ANSRTGI | < -0.25
ANTALD | < -0.25
ANYHVTMNGMGAARRIRPVS | < -0.25
ANYTNGEVMVGYGCYLA | < -0.25
APALLGPNIPA | < -0.25
APAVSQRAWSL | < -0.25
APAWFVRSEFAASKSLAFRV | < -0.25
APDVMCRCAGVRPLVLR | < -0.25
APEECH | < -0.25

Substance | growth estimate
APGEIISGDPTSQP | < -0.25
APGHAIRDSLYVDLLAKSDN | < -0.25
APGKGCHFGSPSTERQIDHV | < -0.25
APGLLL | < -0.25
APGPWRSMKSSGIRAMRLFI | < -0.25
APGRGYGDGLGVRKKRKRLE | < -0.25
APGRQSCPRAVRGT | < -0.25
APHMRLIAIQVFCAET | < -0.25
APKALGGKTVV | < -0.25
APKVGDGYESRP | < -0.25
APLSLSYDIEISFCGSHCPS | < -0.25
APLVLGAWFACRDGTSQLGY | < -0.25
APPAQVTKSRSFE | < -0.25
APPSQ | < -0.25
APQSVDY | < -0.25
APRAMGSDRTAIGRVVAEIA | < -0.253
APRKWYIASILSSPGRVS | < -0.25
APRTNFERNRPLH | < -0.25
APSGHVKLVGWMPYALTCSD | < -0.25
APSNNK | < -0.25
APTFREGPVGGDFGR | < -0.25
APTTDAGQRGVSLSVGSG | -0.246
APVK | < -0.25
APVLRFSSEGAYIRRGAVTG | < -0.25

Substance | growth estimate
APVTARLGLAFYSMGPSIAC | < -0.25
APWLLSPGMRTSSKGLLMQG | < -0.25
APWLTSAATPVRQGG | < -0.25
APWVAFHWES | < -0.25
APYANV | < -0.25
AQAD | < -0.25
AQAPLAVRIPNEGAGTRQGH | < -0.25
AQDASRIKLYSCRGPMSALL | < -0.25
AQEAQFFA | < -0.25
AQEVASRSRVLMCRIGTCLA | < -0.25
AQF | < -0.25
AQILNEENERCVGSVSSRLW | < -0.25
AQISRGRSGSSDWTTHASIR | < -0.25
AQMAVRELISYPIMTRKKVS | < -0.25
AQRGDFRRTRLSTQVSNLIL | < -0.25
AQS | < -0.25
AQSLLIGTARVVGEWAQGKD | < -0.25
AQSSVITSDQKIGVREGQRG | < -0.25
AQSVTERPRGTVLIIAFGKE | < -0.25
AQSYLYPYGREG | -0.246
AQTTGTIRDSDTQPWLDRRL | < -0.25
AQYYPLGQKLDLRVPHFNPS | < -0.25
ARALMVLEEGLAAGSQHPLV | < -0.25
ARAMIQ | < -0.25

In another format: results already given

| Substance | growth estimate |
| --- | --- |
| AQEVASRSRVLMCRIGTCLA | < -0.25 |
| AQF | < -0.25 |
| AQILNEENERCVGSVSSRLW | < -0.25 |
| AQISRGRSGSSDWTTHASIR | < -0.25 |
| AQMAVRELISYPIMTRKKVS | < -0.25 |
